Results deposited as PubChem BioAssay AID743454 (Peter MacCallum Cancer Centre, 2014).
Aim: 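Knock-downs lowering viability or raising caspase 3/7 activity in vorinostat-treated resistant cells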 (primary screen). Cell system: human HCT116-VR colon cancer cells, selected for vorinostat resistance. Knock-down reagent: siRNA pool against human genes, 40 nM siRNA pool. Timing: vorinostat for 24 h, read-out about 72 h after transfection. Conditions: vorinostat at 2.5 µM final. Detection: 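Two measures, CellTiter-Fluor viability and luminescent caspase 3/7 activity, each as fold change against same-plate mock wells, mean of duplicates, then screen-wide robust z-score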. Reading the numbers: viability robust z-score: higher = more viable cells than screen typical; caspase robust z-score: higher = more caspase 3/7 activity than screen typical. Call rule: 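a knock-down is a hit when classed RV1 or RV2 for lowered viability, or CA1 or CA2 for caspase activation; those lethal without drug were dropped; hits were retested singly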.
Here is a random part of about 18,000 reagents tested. In the full data, 450 (2.5%) were called active. 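Single biological run; no consistent viability z cut-off exists, so the class columns, not z-scores, define the calls.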

gene knocked down,viability hit class,caspase hit class,viability robust z-score,caspase robust z-score,call
LDB1,no change,no change,1,-0.76,inactive
CFDP1,no change,no change,0.61,0.27,inactive
FOXQ1,no change,no change,0.07,0.02,inactive
TDG,no change,no change,1.09,-0.7,inactive
CHRNA5,no change,no change,1.17,-0.06,inactive
DOCK1,no change,no change,-0.91,1.19,inactive
ZNF546,no change,no change,0.1,-0.94,inactive
FAM220A,no change,no change,-0.18,-0.68,inactive
NOTCH3,no change,no change,-0.3,0.26,inactive
ZNF749,no change,no change,0.65,1.51,inactive
SCRN1,no change,no change,0.06,-0.77,inactive
SLC38A1,no change,no change,-1.03,1.66,inactive
ANK2,no change,no change,0.66,-0.87,inactive
TFF2,no change,no change,0.32,0.14,inactive
ZFYVE28,no change,no change,-0.17,0.62,inactive
DRD4,no change,no change,-0.5,0.5,inactive
SDHAF2,no change,no change,-0.15,0.7,inactive
KCNMB4,no change,no change,0.36,1.03,inactive
GALNT11,no change,no change,-0.8,0.53,inactive
RAB8A,no change,no change,-0.28,2.36,inactive
CCN2,no change,no change,0.12,0.03,inactive
TMEM205,no change,no change,-1.67,-0.44,inactive
KIF11,no change,no change,-4,0.59,inactive
SACK1F,no change,no change,1.04,1.6,inactive
DGCR6,no change,no change,0.1,0.8,inactive
NLRP8,no change,no change,0.44,-0.32,inactive
FCF1,no change,no change,-2.21,-1.27,inactive
PTPRE,no change,no change,0.47,2.38,inactive
PARD6G,no change,no change,-0.98,0.3,inactive
ZBTB25,no change,no change,0.91,0.68,inactive
DORIP1,no change,no change,-0.5,0.35,inactive
CPNE2,no change,no change,0.25,-1.21,inactive
SLC6A11,no change,no change,-0.26,0.7,inactive
DNAJC14,no change,no change,0.26,1.35,inactive
CYP4X1,no change,no change,1,0.48,inactive
NOX1,no change,no change,-0.3,-0.6,inactive
CBFB,no change,no change,0.85,1,inactive
COL22A1,no change,no change,0.96,-0.17,inactive
CSF1,no change,no change,0.4,0.81,inactive

2 consecutive records already listed, for reference:
gene knocked down,viability hit class,caspase hit class,viability robust z-score,caspase robust z-score,call
ZNF749,no change,no change,0.65,1.51,inactive
SCRN1,no change,no change,0.06,-0.77,inactive
